Measured values reported in PubChem BioAssay AID2672 (National Center for Advancing Translational Sciences (NCATS), 2010).
Only a part is listed here, and it is no random draw. Where no call is shown, the source filed none. Results filed as inconclusive are left out. The source made the active and inactive calls. Calls come from the whole dose curve; as a rule, active = well fitted curve in the direction sought with a large enough effect; inconclusive = small, poorly fitted or top-dose-only effect, or another doubt; inactive = no such curve, though single readings can be large or run the other way.

Test: qHTS Assay Multiplex Screening to Identify Dual Action Probes in a Cell Model of Huntington: Cytoprotection in HTT Q25 expressing cells (ATP)
Conditions: PC12 HTT-Q25 inducible, ATP luminescence, 40 h; activity change, positive = cytoprotection: at 46.1 µM (top of the series)
Text: NIH Chemical Genomics Center [NCGC] NIH Molecular Libraries Probe Production centers Network [MLPCN] MLPCN Grant: MH084839-01A1 Assay Submitter (PI): Wei Zheng NCGC Assay Overview: Huntington's disease is a neurodegenerative disorder caused by a trinucleotide repeat expansion in Exon 1 of the Huntingtin gene. The CAG trinucleotide encodes glutamine and polyglutamine expansions cause cell death in selective areas of the brain. Huntington polyglutamine repeats have the tendency to form aggregates which are observable in later stages of the disease. The exact nature of the aggregates, whether toxic, protective, or insignificant, is unclear. A stable PC12 cell line containing a gene fusion of Exon 1 of the Huntingtin gene linked to GFP under the control of the inducible ecdysone promoter were used as the cell-based model of Huntington Disease for high throughput screening. Exon 1 of the Huntingtin gene contained an expansion of 103 polyglutamines (Q103) which, when expressed, caused cell death and distinct, bright GFP aggregates. The amount of cell death and the size and intensity of GFP aggregates increased over time and induction level. The cell death were quantified with a measurement of ATP content in the cells. A maximal 40-50% of cell death was observed when the Huntington gene was induced in this cell line. We optimized this assay in a homogeneous 1536 well format. A quantitative high throughput screen (qHTS) was conducted on the PC12 cells which were induced to express the toxic fusion construct. Small molecules which prevented cell death were identified by using a luminescent ATP quantification method (Perkin Elmer's ATPlite). To characterize compound effects on a different form of the HTT protein, PC12 cells stably containing a construct with an ecdysone inducible promoter expressing GFP fused to the exon 1 of HTTQ25 (Huntington protein which containing a 25 ployglutamine expansion) were used. Less cytoxicity occurs upon induction of HTTQ25.
PC12 cells stably containing a construct with an ecdysone inducible promoter expressing GFP fused to the exon 1 of HTTQ25 (Huntington protein which containing a 25 ployglutamine expansion) were used. NCGC Assay Protocol Summary: Sequence, Parameter, Description 1, Reagent, 5 uL 1500 cells/well 1536 TC treated White clear bottom plate 2, Compound, 23 nL Tebufenozide inducer (100 nM final) to all columns 3, Compound, 23 nL 40 uM to 0.5 nM Libraries 4, Time, 40 hours at 37C 5, Reagent, 5 ul ATPLite cell death assay reagent 6, Detector, 4 sec integration with a Viewlux Luminescent Media consisted of phenol red free DMEM + 5% equine serum (Hyclone # SH30072.03 ), 5% supplemented Bovine Calf Serum (Hyclone # SH30074.03 ), 1x pen/strep, no G418

SMILES	activity change, positive = cytoprotection	Potency
Cn1nnnc1Sc1ncnc2scc(-c3ccccc3F)c12	139%	–
Cn1nnnc1Sc1ncnc2scc(I)c12	37.7%	–
Cn1nnnc1Sc1ncnc2scc(-c3ccc4ccccc4c3)c12	-144%	–
Cn1nnnc1Sc1ncnc2scc(-c3cccc([N+](=O)[O-])c3)c12	40.6%	–
Cn1nnnc1Sc1ncnc2scc(Br)c12	-163%	–
Cn1nnnc1Sc1ncnc2scc(-c3ccc(C(F)(F)F)cc3)c12	inactive: -214%	–
Cn1nnnc1Sc1ncnc2scc(-c3ccc4c(c3)OCO4)c12	210%	–
Cn1nnnc1Sc1ncnc2scc(-c3cccc(Br)c3)c12	inactive: -154%	–
Cn1nnnc1Sc1ncnc2scc(-c3ccsc3)c12	–	active: 10 µM
Cn1nnnc1Sc1ncnc2scc(-c3ccc(C#N)cc3)c12	-143%	–
